# From the supplement of paper PMC11732987, “Enantioselective OTUD7B fragment discovery through chemoproteomics screening and high-throughput optimisation” (Communications Chemistry, 2025)
# The list shows a part of the results. The data scatter; read single values as rough.
# Compound: ClCC(=O)N[C@@H]1CCCc2ccccc12
# Experiment: log2 mean competition ratio of IA-DTB cysteine labelling (DMSO/compound) (log2 ratio); higher = stronger cysteine engagement by compound
# Conditions: 50 µM; treatment time: 4 h; cell line lysate: HEK293T
# Experimental: (§1)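 IA-DTB competitive cysteine chemoproteomics in HEK293T RIPA lysate. Lysates were treated with compound 29 or 30 at 50 or 200 µM for 4 h, then IA-DTB (500 µM, 1 h), trypsin-digested, NeutrAvidin-enriched and analysed by diaPASEF. Competition ratio = intensity DMSO / intensity compound (n=4 treated, n=64 DMSO); binding: mean log2 CR ≥ 1 and p ≤ 0.05 plus QC filters. Target is the cysteine site.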
row,Target,log2 mean competition ratio
1,KDM6A C1023 (UniProt O15550),-0.0188
2,KAT7 C602 (UniProt O95251),-0.13
3,ITPR2 C292 (UniProt Q14571),0.298
4,KHNYN C245 (UniProt O15037),-0.146
5,KIAA1671 C585,-0.23
6,ITPR2 C1522 (UniProt Q14571),-0.235
7,JKAMP C181,-0.238
8,KIF18A C749,-0.104
9,KIDINS220 C1050 (UniProt Q9ULH0),-0.209
10,JRKL C102,0.126
11,ITPK1 C156 (UniProt Q13572),-0.126
12,KIF18A C710,-0.0693
13,ITPR1 C292 (UniProt Q14643),0.0666
14,KIF2C C455 (UniProt Q99661),0.159
15,JCAD C722,-0.0228
16,KDSR C245 (UniProt Q06136),-0.0528
17,KIF23 C165 (UniProt Q02241),-0.186
18,KIDINS220 C1646 (UniProt Q9ULH0),0.00145
19,KDM6A C4 (UniProt O15550),0.136

row,Target,log2 mean competition ratio
1,IST1 C125 (UniProt P53990),-0.00041
2,KIAA1586 C758 (UniProt Q9HCI6),0.128
3,ITM2C C96 (UniProt Q9NQX7),-0.0691
4,KIF26A C915 (UniProt Q9ULI4),0.0744
5,KAT6A C33,0.0313
6,KDM6A C797 (UniProt O15550),0.00828
7,KIF20B C480 (UniProt Q96Q89),-0.089
8,ITM2B C38 (UniProt Q9Y287),-0.44
9,ISCA2 C56 (UniProt Q86U28),0.00963
10,KIAA1958 C73,-0.119
11,ITSN2 C1389 (UniProt Q9NZM3),0.0292
12,KBTBD8 C413 (UniProt Q8NFY9),0.0415
13,KATNB1 C556 (UniProt Q9BVA0),-0.0306
14,KAT8 C230 (UniProt Q9H7Z6),0.0664
15,KIAA0232 C703,-0.153
16,JCAD C785,0.312
17,KIF16B C1141 (UniProt Q96L93),0.14
18,IRS4 C332,-0.0984

# Same assay, conditions: 200 µM; treatment time: 4 h; cell line lysate: HEK293T
row,Target,log2 mean competition ratio
1,KDM6A C1023 (UniProt O15550),0.0707
2,KAT7 C602 (UniProt O95251),-0.0332
3,ITPR2 C292 (UniProt Q14571),0.436
4,KHNYN C245 (UniProt O15037),0.09
5,KIAA1671 C585,0.382
6,ITPR2 C1522 (UniProt Q14571),-0.641
7,JKAMP C181,0.207
8,KIF18A C749,0.278
9,KIDINS220 C1050 (UniProt Q9ULH0),0.144
10,JRKL C102,0.0578
11,ITPK1 C156 (UniProt Q13572),0.0219
12,KIF18A C710,-0.0527
13,ITPR1 C292 (UniProt Q14643),-0.333
14,KIF2C C455 (UniProt Q99661),0.203
15,JCAD C722,-0.325
16,KDSR C245 (UniProt Q06136),-0.0792
17,KIF23 C165 (UniProt Q02241),-0.0448
18,KIDINS220 C1646 (UniProt Q9ULH0),0.119
19,KDM6A C4 (UniProt O15550),-0.116

row,Target,log2 mean competition ratio
1,IST1 C125 (UniProt P53990),-0.203
2,KIAA1586 C758 (UniProt Q9HCI6),-0.0627
3,ITM2C C96 (UniProt Q9NQX7),-0.186
4,KIF26A C915 (UniProt Q9ULI4),0.312
5,KAT6A C33,0.183
6,KDM6A C797 (UniProt O15550),-0.174
7,KIF20B C480 (UniProt Q96Q89),-0.0497
8,ITM2B C38 (UniProt Q9Y287),-0.435
9,ISCA2 C56 (UniProt Q86U28),0.0636
10,KIAA1958 C73,0.393
11,ITSN2 C1389 (UniProt Q9NZM3),-0.565
12,KBTBD8 C413 (UniProt Q8NFY9),-0.139
13,KATNB1 C556 (UniProt Q9BVA0),-0.256
14,KAT8 C230 (UniProt Q9H7Z6),0.409
15,KIAA0232 C703,-0.105
16,JCAD C785,0.0688
17,KIF16B C1141 (UniProt Q96L93),-0.108
18,IRS4 C332,-0.116

# Compound: ClCC(=O)N[C@H]1CCCc2ccccc12
# Experiment: as above
# Conditions: 50 µM; treatment time: 4 h; cell line lysate: HEK293T
# Experimental: as §1
row,Target,log2 mean competition ratio
1,KDM6A C1023 (UniProt O15550),-0.333
2,KAT7 C602 (UniProt O95251),0.19
3,ITPR2 C292 (UniProt Q14571),-0.0809
4,KHNYN C245 (UniProt O15037),0.00478
5,KIAA1671 C585,-0.16
6,ITPR2 C1522 (UniProt Q14571),0.0565
7,JKAMP C181,0.196
8,KIF18A C749,-0.406
9,KIDINS220 C1050 (UniProt Q9ULH0),-0.187
10,JRKL C102,0.0103
11,ITPK1 C156 (UniProt Q13572),-0.168
12,KIF18A C710,-0.0626
13,ITPR1 C292 (UniProt Q14643),-0.201
14,KIF2C C455 (UniProt Q99661),0.213
15,JCAD C722,-0.212
16,KDSR C245 (UniProt Q06136),-0.192
17,KIF23 C165 (UniProt Q02241),-0.376
18,KIDINS220 C1646 (UniProt Q9ULH0),0.421
19,KDM6A C4 (UniProt O15550),-0.1

row,Target,log2 mean competition ratio
1,IST1 C125 (UniProt P53990),0.644
2,KIAA1586 C758 (UniProt Q9HCI6),0.303
3,ITM2C C96 (UniProt Q9NQX7),0.12
4,KIF26A C915 (UniProt Q9ULI4),-0.472
5,KAT6A C33,0.0102
6,KDM6A C797 (UniProt O15550),0.0962
7,KIF20B C480 (UniProt Q96Q89),-0.191
8,ITM2B C38 (UniProt Q9Y287),0.454
9,ISCA2 C56 (UniProt Q86U28),0.141
10,KIAA1958 C73,-0.0581
11,ITSN2 C1389 (UniProt Q9NZM3),-0.0669
12,KBTBD8 C413 (UniProt Q8NFY9),0.0265
13,KATNB1 C556 (UniProt Q9BVA0),-0.333
14,KAT8 C230 (UniProt Q9H7Z6),0.0424
15,KIAA0232 C703,-0.404
16,JCAD C785,-0.0329
17,KIF16B C1141 (UniProt Q96L93),0.142
18,IRS4 C332,0.21
